Test results published in article PMC5702617, “Novel peptide probes to assess the tensional state of fibronectin fibers in cancer” (Nature Communications, 2017).

Test system: Fn fibers in PC-3 xenograft tumor cryosections
Assay: Spatial proximity analysis of stained PC-3 tumor cryosections
Design: species or system mouse
Details: 5 × 5 pixel matrix

CGGGQVTTESNLVEFDEESTKGIVTGAVSDHTTVEDTK [FnBPA5]
FnBPA5-positive pixels in proximity to SHG-positive collagen pixels (19 images): 45% | collagen bundle (SHG) pixels in close proximity to FnBPA5 pixels (19 images): 87% | α-SMA-positive pixels in close proximity to FnBPA5-positive pixels (60 images, FnBPA5-Cy5 stain): 94.5%

No end group written: not given here.
